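A cell-based FRET test of anthrax lethal toxin entry, tracked through the 460 nm emission signal; the cell line is not named here.
Each compound was tested as a concentration series from about 0.0005 to 40 µM.
The number is the fitted AC50 of the 460 nm signal alone; lower values mean a more potent effect. A falling signal goes with compounds filed as inhibitors or cytotoxic, a rising one with activators or fluorescent compounds (inferred from the filed classes).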

Values are in µM.
Common to all entries: measured here: 460 nm channel.
Part of the compounds only, not a random draw; the main read-out is not listed here.
A potency from a partial, single-point or poor curve is only a rough figure.
The first word of each remark tells which way the curve ran; it can be opposite to the aim of the assay.

SMILES | AC50 (µM) | remark
C=CCNc1oc(-c2cccc3ccccc23)nc1C#N | 12.59 | rising, partial curve
O=C(Nc1ccc(OC(F)(F)F)cc1)C1CCCN(S(=O)(=O)c2cccnc2)C1 (configuration not stated) | 1 | falling, full curve
COc1ccc(NC(=O)CN2CCN(c3ccccc3F)CC2)cc1 | 0.07943 | rising, full curve, poor fit
Cn1cc(C2=C(c3cn(CCCSC(=N)N)c4ccccc34)C(=O)NC2=O)c2ccccc21 | 15.85 | falling, partial curve
CSc1ccc(-c2nnn(Cc3ccc(C)cc3)n2)cc1 | 5.012 | falling, partial curve
CN(C)c1ccc(C(=C2C=CC(=[N+](C)C)C=C2)c2ccc(N(C)C)cc2)cc1 | 31.62 | falling, partial curve
COc1ccc(CN(C(=O)c2ccco2)c2ccc(Br)cc2)cc1OC | 31.62 | falling, single point
CC(=O)NCCc1ccc(O)c(O)c1 | 31.62 | falling, single point
C=CCn1c(SCC(=O)Nc2ccc(C(=O)OCC)cc2)nnc1-c1sc(N)nc1C | 5.012 | rising, partial curve
CCOC(=O)c1c(NC(=O)C2CCCN2S(=O)(=O)c2cccc3nsnc23)sc(C)c1C (configuration not stated) | 1.995 | rising, partial curve
CN(C)Cc1ccccc1-c1nc(N(C)Cc2ccco2)c2ccccc2n1 | 10 | falling, single point
Cc1csc2nc(CSc3ccc(Cl)cc3)cn12 | 10 | falling, partial curve, poor fit
COc1ccc(Cl)cc1NS(=O)(=O)c1cc(Cl)ccc1OC | 0.07943 | rising, full curve, poor fit
O=C(Nc1cccc(S(=O)(=O)C(F)F)c1)c1ccc(Cl)c(S(=O)(=O)N2CCOCC2)c1 | 10 | falling, partial curve
CCN(CC)CCNc1ccc(CO)c2sc3ccccc3c(=O)c12 | 1.585 | rising, partial curve, poor fit
CCOC(=O)c1cc(C#N)c(SCC(=O)c2cc(C#N)c(SC)nc2C)[nH]c1=O | 0.3162 | rising, full curve
CN(C)c1ccc(-c2cc(NCc3ccccc3)ncn2)cc1 | 31.62 | falling, single point
c1ccc(CN2CCC(N3CCN(Cc4ccc5c(c4)OCO5)CC3)CC2)cc1 | 2.512 | falling, full curve
CC/C=C/C/C=C/C/C=C/CCCCCCCC(=O)OCC | 10 | falling, partial curve
COc1ccc(CC(=O)NCc2ccccn2)cc1OC | 31.62 | falling, single point
COc1cccc(NC(=O)c2ccco2)c1 | 12.59 | falling, single point
CCOC(=O)c1ccc(COC(=O)CNC(=O)CNC(=O)c2ccc(OC)cc2)o1 | 1.259 | rising, partial curve
CCOC(=O)c1c(OCC)[nH]c2c1cc(O)c1ccccc12 | 12.59 | falling, partial curve
O=C(Nc1nc(-c2cccs2)cs1)c1ccc(Cl)s1 | 10 | falling, partial curve
O=C(c1ccncc1)N1CCC[C@@]2(CCN(c3ccccc3)C2)C1 | 10 | rising, single point
O=C(NC1CCN(C(=O)N2c3ccccc3Sc3ccccc32)CC1)c1ccco1 | 5.012 | rising, single point
CCOC(=O)N1CCN(C(=O)c2ccc(CS(=O)(=O)c3c(Cl)cccc3Cl)o2)CC1 | 10 | rising, partial curve
Cc1ccc(CNc2ncc(-c3ccc4c(c3)OCO4)n2C)cc1 | 12.59 | falling, partial curve, poor fit
Cc1ccc2cc3c(NC(=O)c4ccco4)nn(CC(C)C)c3nc2c1 | 0.0631 | falling, full curve, poor fit
COc1ccc(N2C(C)=CS/C2=C(/C#N)c2nnc(N3CCOCC3)n2-c2ccccc2)cc1 | 19.95 | rising, single point
CC/C(=C(\c1ccccc1)c1ccc(OCCN(C)C)cc1)c1ccccc1 | 31.62 | falling, partial curve
O=[N+]([O-])c1ccc(Nc2nc3ccccc3s2)cc1 | 3.981 | falling, partial curve
CCc1nnc(NC(=O)CCC(=O)NC2CCCCC2)s1 | 2.512 | falling, full curve, poor fit
Cc1ccccc1CSc1nc2n(n1)C(c1cccs1)C1=C(CCCC1=O)N2 (configuration not stated) | 10 | rising, partial curve
CN(C)Cc1ccccc1-c1nc(N(C)C)c2ccccc2n1 | 12.59 | falling, single point
CC(C)N(Cc1nc(-c2ccccc2)no1)C(=O)c1ccc(Cl)cc1 | 10 | falling, partial curve
Clc1ccccc1-c1ccc2ncnc(NC3CCNCC3)c2c1 | 12.59 | falling, partial curve
OC1CCCCC1Sc1nc2ccccc2s1 (configuration not stated) | 5.012 | falling, partial curve, poor fit
N#C/C(=C(/O)CN1CCOCC1)c1nc(-c2ccccc2)cs1 | 25.12 | falling, single point
COc1ccccc1-c1nnc(SCC(=O)NCc2c(C)c(Cl)cc(C(C)C)c2O)o1 | 31.62 | falling, single point
CCCN(CCC)CCSc1nc(O)c(C(C)C)c(=O)[nH]1 | 12.59 | rising, single point
CN(C)C(=O)Nc1ccc(Cl)cc1 | 31.62 | falling, partial curve
Cn1c(=O)oc2cc(S(=O)(=O)Nc3ccc4c(c3)OCO4)ccc21 | 0.631 | rising, partial curve
COC(=O)c1cc2occc2n1Cc1c(F)cccc1Cl | 12.59 | falling, partial curve, poor fit
CSc1ccc(S(=O)(=O)N2CCN(Cc3ccc4c(c3)OCO4)CC2)cc1 | 10 | falling, partial curve
CCCN(CCC)CCCNC(=O)c1cc2cc3ccc(OC)cc3nc2o1 | 12.59 | falling, single point
COc1ccc(N2CC(C)Cn3c2nc2c3c(=O)n(Cc3ccc(F)cc3)c(=O)n2C)c(OC)c1 (configuration not stated) | 12.59 | falling, partial curve
O=C1CC(c2ccccc2)n2nc(NC(=O)c3ccccn3)nc2N1 (configuration not stated) | 0.631 | rising, full curve, poor fit
CCOC(=O)c1nnn(CC(=O)Nc2cc(Cl)ccc2C)c1C(=O)OCC | 7.943 | falling, partial curve
Cc1noc(C)c1C(=O)N1CCC2(CC1)CCN(c1ncccn1)CC2 | 3.981 | falling, partial curve
O=C1C(c2ccc(F)cc2)N(Cc2ccc3c(c2)OCO3)C(=O)CN1C1CCCCC1 (configuration not stated) | 0.1259 | rising, full curve, poor fit
COCCn1c(=O)c(-c2ccc(Cl)cc2)nc2cnc(Oc3ccccc3)nc21 | 12.59 | rising, partial curve
CCCc1nn(CCc2ccccn2)c(N)c1CC | 10 | rising, partial curve
C=CCc1cc(C)ccc1OCC(O)CN1CCN(c2ccccc2)CC1 (configuration not stated) | 10 | falling, single point
Cc1noc(C)c1C(=O)OCC(=O)Nc1ccccc1C(=O)NC(C)c1ccccc1 (configuration not stated) | 0.631 | rising, partial curve
CCNc1ncc2nc(-c3cccs3)c(=O)n(C[C@H]3CCCO3)c2n1 | 12.59 | rising, partial curve
CCOC(=O)c1c(C)[nH]c(C(=O)OC/C(O)=C(\C#N)c2nc3ccccc3[nH]2)c1C | 10 | rising, partial curve
COc1ccc(-c2noc(CN3CCC(Cc4ccccc4)CC3)n2)cc1 | 10 | falling, single point
CCN(CC)CC(=O)c1ccc(-c2ccccc2)cc1 | 10 | falling, partial curve
CCCCC(CC)COC(=O)c1ccc(N(C)C)cc1 (configuration not stated) | 10 | falling, full curve, poor fit
Cc1ccc(N)cc1Cl | 2.512 | falling, full curve, poor fit
CCC1(NC(C)=O)CC2CC1CC2NC(C)=O (configuration not stated) | 0.07943 | falling, full curve

Some entries from above, unchanged:

For COc1ccc(NC(=O)CN2CCN(c3ccccc3F)CC2)cc1 the result was AC50 0.07943 µM (rising, full curve, poor fit).
For Cc1ccc2cc3c(NC(=O)c4ccco4)nn(CC(C)C)c3nc2c1 the result was AC50 0.0631 µM (falling, full curve, poor fit).
For O=C(NC1CCN(C(=O)N2c3ccccc3Sc3ccccc32)CC1)c1ccco1 the result was AC50 5.012 µM (rising, single point).
For Cn1c(=O)oc2cc(S(=O)(=O)Nc3ccc4c(c3)OCO4)ccc21 the result was AC50 0.631 µM (rising, partial curve).
For C=CCn1c(SCC(=O)Nc2ccc(C(=O)OCC)cc2)nnc1-c1sc(N)nc1C the result was AC50 5.012 µM (rising, partial curve).
For Cc1noc(C)c1C(=O)OCC(=O)Nc1ccccc1C(=O)NC(C)c1ccccc1 (configuration not stated) the result was AC50 0.631 µM (rising, partial curve).
For O=C(Nc1cccc(S(=O)(=O)C(F)F)c1)c1ccc(Cl)c(S(=O)(=O)N2CCOCC2)c1 the result was AC50 10 µM (falling, partial curve).
For C=CCc1cc(C)ccc1OCC(O)CN1CCN(c2ccccc2)CC1 (configuration not stated) the result was AC50 10 µM (falling, single point).

Data taken from PubChem BioAssay AID912, deposited by NCATS (2007).